{"sequences": {"note": "Amino acid sequences for entries named in this document (tags omitted). Residues count along the entry.", "UniProt P02768, 25-609": "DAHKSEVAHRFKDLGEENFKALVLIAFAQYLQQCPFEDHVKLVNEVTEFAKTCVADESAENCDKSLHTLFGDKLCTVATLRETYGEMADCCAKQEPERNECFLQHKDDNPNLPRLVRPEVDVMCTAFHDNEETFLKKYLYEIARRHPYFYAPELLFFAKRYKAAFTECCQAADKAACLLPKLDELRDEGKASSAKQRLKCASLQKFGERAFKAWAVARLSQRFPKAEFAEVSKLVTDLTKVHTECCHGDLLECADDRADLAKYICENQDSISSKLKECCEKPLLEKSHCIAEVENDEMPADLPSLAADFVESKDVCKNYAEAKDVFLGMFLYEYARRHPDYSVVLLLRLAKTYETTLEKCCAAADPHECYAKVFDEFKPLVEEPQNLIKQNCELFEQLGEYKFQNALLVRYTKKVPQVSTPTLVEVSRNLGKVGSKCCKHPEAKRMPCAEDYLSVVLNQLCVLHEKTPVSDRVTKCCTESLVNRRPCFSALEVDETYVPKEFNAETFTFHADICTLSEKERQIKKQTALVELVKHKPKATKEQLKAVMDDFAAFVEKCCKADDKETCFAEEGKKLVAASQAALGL"}, "source": "patent US11351291B2", "about": "“Systems or apparatuses and methods for performing dialysis” (ADVITOS GMBH, priority 2016, dated 2022)", "key": {"albumin [1]": {"target": "T1, albumin (Homo sapiens, UniProt P02768)", "assay": "pH dependence of binding affinity for albumin", "conditions": "pH of about 12", "excerpt": "Adjusting the pH of the fluids to the acidic and/or basic range makes it possible to selectively influence the binding of different substances to the respective carrier proteins or adsorbers. […] For example, the binding of copper ions to albumin can be weakened in this way so that free, dissolved copper ions in the following filter can be removed by dialysis, filtration, diafiltration, centrifugation, a field, or sorting by weight difference. Analogously, the pH of the fluid can be adjusted to the basic range so that the toxins liberated in the alkaline range can then be eliminated from the fluid by dialysis, filtration or diafiltration. […] A pH range of 8-13 is often preferred.\nDevices for adjusting the pH include especially devices for adding acid or base, for example metering pumps. Appropriate acids or bases arc aqueous solutions of biologically compatible acids or bases. It is generally preferable to use acids or bases whose conjugate bases or acids are ions that occur naturally in the human organism. Examples of acids which can be used are hydrochloric acid, sulfuric acid or acetic acid, hydrochloric acid being preferred. Examples of bases which can be used are sodium hydroxide solution or potassium hydroxide solution, sodium hydroxide solution being preferred. […]"}, "albumin [2]": {"target": "T1, albumin", "conditions": "binding to albumin; reported association constants; cited from earlier work"}}, "note": "For at least one compound, name, drawing or mass did not settle the structure."}
{"smiles": "C=CC1=C(C)/C(=C/c2[nH]c(Cc3[nH]c(/C=C4\\NC(=O)C(C)=C4C=C)c(C)c3CCC(=O)O)c(CCC(=O)O)c2C)NC1=O", "note": "[Bilirubin]", "values": [{"measurement": "binding affinity for albumin", "setting": "albumin [1]", "result": "significantly lowered"}, {"measurement": "Association constant, KA", "setting": "albumin [2]", "result": "9.5e+07", "unit": "M⁻¹"}]}
